PubChem BioAssay AID1159584 | Peter MacCallum Cancer Centre – 2016

Test: 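Genes that CDH1-null MCF10A cells selectively depend on to survive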 (primary screen)
Cell system: human MCF10A breast epithelial cells, parental and CDH1-null
Reagent: siRNA against human genes
Read-out: 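Cell viability by CellTiter-Glo ATP luminescence, each line scaled to the mean of mock wells across plates, then CDH1-null over parental ratio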
Scale: CDH1-null / parental viability ratio: higher = CDH1-null cells survive relatively better than parental; CDH1-null viability vs mock: higher = more viable CDH1-null cells; parental viability vs mock: higher = more viable parental cells
The deposit covers about 18,000 reagents; shown is an unselected part. Not given: the amount of reagent, the time to read-out.

| target | CDH1-null / parental viability ratio | CDH1-null viability vs mock (fraction of mock) | parental viability vs mock (fraction of mock) |
| --- | --- | --- | --- |
| TSPY3 (testis specific protein Y-linked 3) | 0.9 | 0.56 | 0.62 |
| OVOL1 (ovo like transcriptional repressor 1) | 0.91 | 0.7 | 0.77 |
| NFASC (neurofascin) | 1.01 | 0.83 | 0.82 |
| PLSCR3 (phospholipid scramblase 3) | 1.02 | 0.96 | 0.94 |
| KCNC3 (potassium voltage-gated channel subfamily C member 3) | 1.09 | 0.94 | 0.86 |
| MTNAP1 (mitochondrial nucleoid associated protein 1) | 0.94 | 0.64 | 0.68 |
| SH2D1A (SH2 domain containing 1A) | 0.95 | 0.78 | 0.82 |
| SENP7 (SUMO specific peptidase 7) | 1.15 | 0.78 | 0.68 |
| SOD1 (superoxide dismutase 1) | 1.02 | 1.1 | 1.08 |
| KEAP1 (kelch like ECH associated protein 1) | 1.24 | 0.68 | 0.55 |
| NKAIN4 (sodium/potassium transporting ATPase interacting 4) | 1.53 | 1.07 | 0.7 |
| TRIM73 (tripartite motif containing 73) | 0.76 | 0.6 | 0.79 |
| CAD | 0.84 | 0.74 | 0.88 |
| TAL2 (TAL bHLH transcription factor 2) | 1.14 | 0.92 | 0.81 |
| GIMAP2 (GTPase, IMAP family member 2) | 1.04 | 0.94 | 0.9 |
| PRCC (proline rich mitotic checkpoint control factor) | 0.99 | 0.8 | 0.81 |
| RPL39L (ribosomal protein L39 like) | 1.17 | 0.88 | 0.75 |
| HSPA12B (heat shock protein family A (Hsp70) member 12B) | 1.11 | 0.72 | 0.65 |
| CHKA (choline kinase alpha) | 0.87 | 0.66 | 0.76 |
| TP53INP2 (tumor protein p53 inducible nuclear protein 2) | 0.8 | 0.7 | 0.87 |
| TMEM86B (transmembrane protein 86B) | 0.66 | 0.69 | 1.05 |
| DLGAP3 (DLG associated protein 3) | 1.3 | 0.96 | 0.74 |
| ZBTB24 (zinc finger and BTB domain containing 24) | 1.01 | 0.96 | 0.95 |
| CC2D2A (coiled-coil and C2 domain containing 2A) | 1.19 | 0.94 | 0.79 |
| ZMAT3 (zinc finger matrin-type 3) | 0.84 | 0.72 | 0.86 |
| NAPRT (nicotinate phosphoribosyltransferase) | 1.67 | 0.6 | 0.36 |
| OASL (2'-5'-oligoadenylate synthetase like) | 0.89 | 0.66 | 0.74 |
| NME6 (NME/NM23 nucleoside diphosphate kinase 6) | 1.01 | 0.85 | 0.84 |
| SLC37A2 | 0.92 | 0.85 | 0.92 |
| DENND11 (DENN domain containing 11) | 0.76 | 0.57 | 0.75 |
| ALAD (aminolevulinate dehydratase) | 1.09 | 0.6 | 0.55 |
| B3GNT7 | 1.03 | 0.72 | 0.7 |
| UBE2W (ubiquitin conjugating enzyme E2 W) | 1.17 | 0.9 | 0.77 |
| RPS6KL1 (ribosomal protein S6 kinase like 1) | 0.82 | 0.54 | 0.66 |
| SNN (stannin) | 1.22 | 0.6 | 0.49 |
| PKD1L3 | 1.3 | 0.91 | 0.7 |
| TMEM9B (TMEM9 domain family member B) | 0.95 | 0.36 | 0.38 |
| SDCBP2 (syndecan binding protein 2) | 1.38 | 0.88 | 0.64 |
| HYAL2 (hyaluronidase 2) | 0.87 | 0.9 | 1.04 |
| C1orf115 (chromosome 1 open reading frame 115) | 0.85 | 0.87 | 1.02 |
| ZNF513 (zinc finger protein 513) | 0.94 | 0.45 | 0.48 |
| SOWAHC (sosondowah ankyrin repeat domain family member C) | 1 | 0.43 | 0.43 |
| ZNF362 (zinc finger protein 362) | 1.52 | 0.94 | 0.62 |
| PRKAG1 (protein kinase AMP-activated non-catalytic subunit gamma 1) | 1.12 | 0.91 | 0.81 |
| TSPO (translocator protein) | 1.38 | 1.21 | 0.88 |
| XAB2 (XPA binding protein 2) | 0.65 | 0.26 | 0.4 |
| ECHDC1 (ethylmalonyl-CoA decarboxylase 1) | 1.03 | 0.89 | 0.86 |
| HAND1 (heart and neural crest derivatives expressed 1) | 1.23 | 1.12 | 0.91 |
| TFPI2 (tissue factor pathway inhibitor 2) | 0.96 | 0.77 | 0.8 |
| NMT1 (N-myristoyltransferase 1) | 0.96 | 0.86 | 0.9 |
| SOAT1 (sterol O-acyltransferase 1) | 1.02 | 0.99 | 0.97 |
| DSG3 (desmoglein 3) | 1.27 | 1.27 | 1 |
| PUF60 (poly(U) binding splicing factor 60) | 1.5 | 0.72 | 0.48 |
| TRIM77 (tripartite motif containing 77) | 0.9 | 0.7 | 0.78 |
| EXOC5 (exocyst complex component 5) | 0.85 | 0.66 | 0.78 |
| NPNT (nephronectin) | 1.12 | 0.75 | 0.67 |

Next part; the last 6 above are carried over.
| target | CDH1-null / parental viability ratio | CDH1-null viability vs mock (fraction of mock) | parental viability vs mock (fraction of mock) |
| --- | --- | --- | --- |
| SOAT1 (sterol O-acyltransferase 1) | 1.02 | 0.99 | 0.97 |
| DSG3 (desmoglein 3) | 1.27 | 1.27 | 1 |
| PUF60 (poly(U) binding splicing factor 60) | 1.5 | 0.72 | 0.48 |
| TRIM77 (tripartite motif containing 77) | 0.9 | 0.7 | 0.78 |
| EXOC5 (exocyst complex component 5) | 0.85 | 0.66 | 0.78 |
| NPNT (nephronectin) | 1.12 | 0.75 | 0.67 |
| MET (MET proto-oncogene, receptor tyrosine kinase) | 1.04 | 0.88 | 0.85 |
| ABTB2 (ankyrin repeat and BTB domain containing 2) | 0.82 | 0.56 | 0.68 |
| SC5D (sterol-C5-desaturase) | 1.11 | 0.98 | 0.88 |
| KRT6C (keratin 6C) | 0.87 | 0.67 | 0.77 |
| BLTP3B (bridge-like lipid transfer protein family member 3B) | 1 | 0.69 | 0.69 |
| NUDT3 (nudix hydrolase 3) | 1.36 | 0.95 | 0.7 |
| SLC2A5 | 1.31 | 1.02 | 0.78 |
| CELF2 (CUGBP Elav-like family member 2) | 1 | 0.8 | 0.8 |
| RNF141 (ring finger protein 141) | 0.99 | 0.96 | 0.97 |
| CATSPER4 (cation channel sperm associated 4) | 1.36 | 0.83 | 0.61 |
| DRD3 (dopamine receptor D3) | 0.81 | 0.77 | 0.95 |
| C1QTNF8 (C1q and TNF related 8) | 1.36 | 0.76 | 0.56 |
| TBC1D17 (TBC1 domain family member 17) | 0.94 | 0.58 | 0.62 |
| MOCS3 (molybdenum cofactor synthesis 3) | 1.16 | 0.74 | 0.64 |
| VLDLR (very low density lipoprotein receptor) | 1.07 | 0.94 | 0.88 |
| TTL (tubulin tyrosine ligase) | 1.17 | 1.08 | 0.92 |
| GIMAP4 (GTPase, IMAP family member 4) | 0.99 | 0.76 | 0.77 |
| CGAS (cyclic GMP-AMP synthase) | 1.06 | 1 | 0.94 |
| SYNPR (synaptoporin) | 0.75 | 0.74 | 0.99 |
| PIGM (phosphatidylinositol glycan anchor biosynthesis class M) | 1.03 | 0.69 | 0.67 |
| THAP8 (THAP domain containing 8) | 0.9 | 0.61 | 0.68 |
| SLC3A2 | 0.89 | 0.89 | 1 |
| ZNF117 (zinc finger protein 117) | 1.13 | 0.54 | 0.48 |
| UGT1A8 (UDP glucuronosyltransferase family 1 member A8) | 1.19 | 1.21 | 1.02 |
| AUH (AU RNA binding methylglutaconyl-CoA hydratase) | 1.17 | 1.08 | 0.92 |
| GSK3B (glycogen synthase kinase 3 beta) | 0.8 | 0.78 | 0.97 |
| DOCK1 (dedicator of cytokinesis 1) | 1.15 | 0.9 | 0.78 |
| FGB (fibrinogen beta chain) | 0.93 | 0.82 | 0.88 |
| HPX (hemopexin) | 0.93 | 0.56 | 0.6 |
| SLC30A4 | 0.77 | 0.57 | 0.74 |
| CCL23 (C-C motif chemokine ligand 23) | 1.25 | 0.84 | 0.67 |
